# PubChem BioAssay AID504774 – Drosophila RNAi Screening Center, 2011
# Screen: 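Genes required for cells to withstand methyl methanesulphonate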 (primary screen)
# Cells: Drosophila Kc167 cells
# Reagent: long dsRNA against Drosophila genes, about 0.25 µg dsRNA per well
# Duration: about 6 days: 3 days knock-down, then 3 days with or without MMS
# Treatment: methyl methanesulphonate 0.004% (w/v) for 3 days after knock-down
# Measurement: 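Viability in wells given MMS, read as ATP luminescence, normalised by quantiles plate by plate and averaged across replicates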
# Reading the numbers: mean viability with MMS and viability with MMS: higher = more surviving cells after MMS
# The screen tested about 23,000 reagents; this is a random part of those that have a named target and a result. 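Values are quantile-normalised luminescence on an arbitrary scale; higher means more cells surviving MMS.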 Names joined by + are all predicted targets of the reagent. Further read-outs or replicates are left out here. Reagent sequences are not shown.
gene,amplicon,mean viability with MMS,"viability with MMS, replicate 1"
mir-210 (retired record),DRSC19230,3.55e6,4.02e6
CG10324,DRSC14230,3.40e6,3.92e6
CG7484,DRSC10853,3.49e6,4.03e6
CG7650,DRSC10898,3.57e6,4.11e6
CG4116,DRSC18348,3.46e6,3.99e6
CG17782,DRSC15267,3.63e6,4.14e6
CG17782,DRSC23227,3.80e6,4.32e6
Klp3A,DRSC18676,3.60e6,3.99e6
Klp3A,DRSC21625,3.74e6,4.24e6
CG12499,DRSC14521,3.51e6,4.15e6
CG2224,DRSC15429,3.57e6,4.09e6
CG15529,DRSC15066,3.25e6,3.65e6
CG9917,DRSC20218,3.45e6,4.16e6
CG4686,DRSC15622,3.68e6,4.22e6
CG31752,DRSC22599,3.65e6,4.13e6
Rpn5,DRSC12367,3.17e6,3.71e6
Phax,DRSC07066,3.54e6,4.06e6
velo,DRSC08841,2.91e6,3.58e6
velo,DRSC09698,3.05e6,3.63e6
Cpr62Bc,DRSC08545,3.56e6,4.02e6
CG34342,DRSC09756,3.53e6,4.00e6
CG34342,DRSC22515,3.26e6,3.86e6
CG4982,DRSC10465,1.71e6,3.84e6
Sld5,DRSC14892,3.53e6,4.07e6
l(3)73Ah + CG32163,DRSC21888,3.62e6,4.09e6
mRpL38,DRSC19734,3.82e6,4.21e6
pcs,DRSC07042,3.16e6,3.69e6
Ugt36D1,DRSC02600,3.53e6,4.12e6
hep,DRSC19839,3.41e6,3.90e6
hep,DRSC20337,3.51e6,4.05e6
ome,DRSC09322,3.55e6,4.01e6
ome,DRSC10282,3.70e6,4.07e6
ome,DRSC11380,3.66e6,4.23e6
fd102C,DRSC17203,3.55e6,3.99e6
CG14659,DRSC12245,3.44e6,3.95e6
LManII,DRSC01986,3.66e6,4.35e6
Dll,DRSC04610,3.52e6,4.19e6
CG6421,DRSC07420,3.52e6,3.86e6
CG34054,DRSC05277,3.52e6,3.91e6
Cyp304a1,DRSC16623,3.50e6,3.92e6
Ccdc39,DRSC12286,3.50e6,3.87e6
CG5693,DRSC02878,3.50e6,3.96e6
Yp2,DRSC18732,3.56e6,4.07e6
CoRest,DRSC19881,3.38e6,3.83e6
CoRest,DRSC21626,3.71e6,4.19e6
CoRest,DRSC22305,2.86e6,3.77e6
hts,DRSC07629,3.45e6,3.83e6
Hacd1,DRSC02988,3.67e6,4.34e6
Pxd,DRSC16805,3.45e6,3.90e6
CG4074,DRSC11752,3.69e6,4.19e6
CG33098,DRSC22903,3.51e6,4.03e6
CG12229,DRSC09868,3.64e6,4.12e6
COX5A,DRSC16611,3.33e6,3.84e6
Polr2M,DRSC15513,3.22e6,3.74e6
cpb,DRSC00809,3.58e6,3.83e6
CG13625,DRSC14627,3.28e6,3.73e6
CG32271,DRSC08198,3.52e6,3.90e6
CG8563,DRSC10996,3.61e6,4.07e6
CG15167,DRSC02468,3.58e6,4.08e6
CG17751,DRSC15261,3.54e6,3.84e6
CG17751,DRSC22837,3.40e6,4.00e6
CG5162,DRSC19935,3.44e6,3.91e6
Med,DRSC16737,3.05e6,3.68e6
CG3640,DRSC04399,3.47e6,3.94e6
CG9393,DRSC16486,3.53e6,4.02e6
Nepl8,DRSC02759,3.31e6,3.76e6
Hacl,DRSC06061,3.53e6,4.02e6
Cpr76Bc,DRSC11062,3.52e6,3.87e6
E(Pc),DRSC05281,3.11e6,3.80e6
E(Pc),DRSC07408,3.05e6,3.35e6
scat,DRSC02722,3.73e6,4.24e6
Myb,DRSC20260,3.37e6,3.99e6
CG11698,DRSC14355,1.84e6,3.98e6
Trx2,DRSC03622,3.45e6,3.76e6
Rpn3,DRSC03318,3.19e6,3.73e6
Or45a,DRSC07487,3.57e6,4.00e6
CG32214,DRSC09613,3.51e6,3.88e6
CG8861,DRSC12731,3.38e6,3.78e6
CG8861,DRSC16449,3.52e6,4.05e6
CG5958,DRSC02915,3.40e6,3.75e6
Gtpx,DRSC08221,3.81e6,4.34e6
Gtpx,DRSC22117,3.32e6,3.89e6
blanks,DRSC09757,3.64e6,4.07e6
B-H1,DRSC19334,3.11e6,3.54e6
B-H1,DRSC21922,3.74e6,4.17e6
Ubc84D,DRSC12610,3.50e6,3.92e6
Gnf1,DRSC12351,3.24e6,3.70e6

Entries listed so far whose gene name begins with S or s (2):
gene,amplicon,mean viability with MMS,"viability with MMS, replicate 1"
Sld5,DRSC14892,3.53e6,4.07e6
scat,DRSC02722,3.73e6,4.24e6
